# Literature values in US4906638A (priority 1987, dated 1990).
# For some assays here: The name of at least one read-out is uncertain. For some assays here: At least one compound was matched to its structure with a doubt left.
# Columns and labels:
# [1] = target: [^3 H]dextromethorphan receptor; settings: cited from earlier work; for Kd: read-out: affinity for the [^3 H]dextromethorphan receptor, lower brainstem homogenates
# [2] = target: [^3 H]TCP-labeled-NMDA-linked receptor; settings: read-out: affinity for the [^3 H]TCP-labeled-NMDA-linked receptor; cited from earlier work
# [3] = system: transauricular maximal electroshock seizure (MES); settings: co-administration of dextromethorphan in vivo; cited from earlier work
SMILES,Kd [1] [nM],Kd [2] [nM],anticonvulsant potency (ED50) (in words) [3],effect on [^3 H]dextromethorphan binding / binding to the dextromethorphan site (in words) ([1]; central nervous system site)
COc1ccc2c(c1)[C@]13CCCC[C@@H]1[C@H](C2)N(C)CC3 [dextromethorphan],< 20,–,–,–
CN1CC[C@@]23CCCC[C@@H]2[C@@H]1Cc1ccc(O)cc13 [dextrorphan],2500,< 10,–,–
"O=C1NC(=O)C(c2ccccc2)(c2ccccc2)N1 [dilantin, diphenylhydantoin]",–,–,enhanced (ED50 decreased),markedly increased
